Laboratory results: patent publication US20110020235A1, “MR METHODS OF GRADING A TUMOR USING AN IMAGING MEDIUM THAT COMPRISES HYPERPOLARISED 13C-PYRUVATE” (priority 2007, published 2011)

Test system: TRAMP mouse prostate tumor
Test: in vivo 3D hyperpolarized 13C-MRSI of prostate tumors in TRAMP mice after injection of hyperpolarized 13C1-pyruvate
Conditions: 13C-MRSI 35 seconds after start of injection of 79 mM hyperpolarized pyruvate
Procedure: All normal (N=5) and TRAMP (N=4 early stage primary tumor (low grade tumor)), N=5 late stage primary tumor (high grade tumor)) mouse studies were performed under a protocol approved by the UCSF Institutional Animal Care and Utilization Committee. (1). For all the mice included in this study, a 28 g port that extended from the dorsal surface of their neck was surgically implanted into one of their jugular veins at least one day before the hyperpolarized MR study. […]
^1H-MR images were acquired in sagittal, axial and coronal views using a T2-weighted fast spin echo sequence with a 6 cm FOV, 128×128 matrix, 1.5 mm slice thickness with no inter-slice spacing, and TE=102 ms/TR=4 s. […] A double spin-echo pulse sequence with a small flip-angle excitation, adiabatic refocusing, and a flyback echo-planar readout trajectory was used to acquire in vivo 3D hyperpolarized ^13C-MRSI data 35 seconds after the start of the pyruvate injection into jugular vein of six TRAMP mice (3 early and 3 late stage tumor) (1-2). […]
During the dissection digital photographs and videos were taken and excised tissues were immediately fixed in 10% buffered formalin. […] The % necrosis was also recorded (Table 1). […]

Structure (SMILES): CC(=O)C(=O)O [13C1-pyruvate]
- lactate to pyruvate ratio (early stage primary tumor (low grade)): 1.2
- lactate to pyruvate ratio (late stage primary tumor (high grade)): 3.4
